In patent US4637996A, “Antiulcer composition containing a dipeptide compound” (Nippon Zoki Pharmaceutical Co., Ltd., priority 1984, dated 1987):
Part of at least one peptide drawing is inferred or uncertain, most often the ends. Peptide text beside a SMILES is read from it.

Test system: histamine-induced ulcer formation
Assay: Inhibition of histamine-induced ulcer formation
Type: in vivo, Wister strain rats
Conditions: 20 mg/kg i.v., rats, histamine dihydrochloride 300 mg/kg i.p., 4 hours; for Ulcer coefficient (mean ± S.E.): sum of surface area of ulcer lesion
Protocol: Immediately thereafter, 300 mg/kg of histamine dihydrochloride was administered intraperitoneally (i.p.) F. Burcher et al; [Beith. Path. Anat., 81, 391 (1928)]. Four hours later, each animal was bled to death by decapitation, and the stomach was removed. 7.5 ml of physiological saline was infused into the removed stomach and partially fixed in 10% formalin for 10 minutes. Then, the stomach was incised along the greater curvature. The sum of the surface area of the ulcer lesion on the glandular part of the stomach was designated as the ulcer coefficient.

SMILES	Inhibition rate (%)	Ulcer coefficient (mean ± S.E.)
NCCCC[C@H](NC(=O)[C@@H](N)Cc1c[nH]cn1)C(=O)O [HisLys, His-Lys] (H-His-Lys-OH)	67.2	14.8 ± 8.9
N[C@@H](CO)C(=O)N[C@@H](Cc1c[nH]cn1)C(=O)O [SerHis, Ser-His] (H-Ser-His-OH)	62.1	17.1 ± 8.5
